Article PMC4114980

What was measured:
[1] = target: T1, Chro-421 (601–926), truncated COOH-terminal domain of Chromator, GST-fusion protein (Drosophila) (UniProt Q86BS3); assay: pull-down; GST fusion proteins or GST on glutathione agarose beads, incubated with purified bovine tubulin in ip buffer with 20 µM taxol and 2 mM GTP (microtubules) overnight at 4°C; blot with tubulin antibody; both purified
T1 sequence: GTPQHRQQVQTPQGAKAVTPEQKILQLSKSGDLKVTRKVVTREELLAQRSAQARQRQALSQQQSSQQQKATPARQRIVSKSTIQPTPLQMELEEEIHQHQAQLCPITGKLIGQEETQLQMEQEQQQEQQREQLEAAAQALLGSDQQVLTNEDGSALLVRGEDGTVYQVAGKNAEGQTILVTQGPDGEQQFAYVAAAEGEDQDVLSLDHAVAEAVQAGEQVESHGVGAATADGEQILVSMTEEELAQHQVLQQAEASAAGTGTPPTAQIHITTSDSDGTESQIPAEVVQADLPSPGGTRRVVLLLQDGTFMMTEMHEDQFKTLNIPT

[2] = target: T2, Chro-M3 (461–600), GST-fusion protein (Drosophila) (UniProt Q86BS3); assay: as above
T2 sequence: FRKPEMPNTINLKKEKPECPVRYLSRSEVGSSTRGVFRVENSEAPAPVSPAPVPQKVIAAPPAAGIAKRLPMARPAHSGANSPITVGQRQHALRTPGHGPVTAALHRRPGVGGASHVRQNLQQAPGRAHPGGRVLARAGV

binding [1]: no binding | binding [2]: binds
Substance: purified bovine brain tubulin (complex)

No constants are given. Whether binding was seen depends on the method and setting. For some assays here: Binding calls can cover weak binding; strength is not graded here. Sequences can lack the tags named with a protein.
